## Screening data, single-dose tests

Results are given as percent effect. The record does not define 0% and 100%; most values in the screen are far below 50% and negative numbers occur (in some assays of this library far below -100). Compounds were drawn at random from those tested, without regard to their results. Two or more numbers in one place are separate tests of the same structure; such repeats can differ widely.

Mtb cholesterol medium: 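Whole-cell growth test on Mycobacterium tuberculosis, read after 4 days in a medium based on cholesterol and the lipid DPPC; the read-out is not stated. Compounds at 50 µM. The record gives no direction; compounds that gave an IC50 in retests scored well above the rest, so higher reads as more growth inhibition. Of about 69,000 compounds tested this way, about 370 (0.54%) reached 50% or more in at least one test.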
Mtb glucose medium: 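Phenotypic screen: M. tuberculosis growth, glucose 7H9 medium, 3 days; the read-out is not stated. Tested at 50 µM. The record gives no direction; compounds that gave an IC50 in retests scored well above the rest, so higher reads as more growth inhibition. Size under these conditions: about 69,000 compounds, about 760 of them at 50% or above in at least one test.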

structure,Mtb cholesterol medium,Mtb glucose medium
CC(O)CNC(=O)NCCCN1CCN(c2ncccn2)CC1 (stereo unspecified),-17.29%,-4.892%
Cc1nc(C2CCN(S(=O)(=O)c3ccc(Cl)cc3)CC2)n[nH]1,20.94%,22.48%
CC(C)c1nc(N2CC(N3CCCCC3C)C2)c2cnn(C)c2n1 (stereo unspecified),-10.77%,-36.76%
CCC(NC(=O)CCNC(=O)c1ccccc1F)c1cc(C)ccn1 (stereo unspecified),5.017%,-16.52%
Cn1c(NCC(O)c2ccc(F)cc2)c(C#N)c(=O)n(C)c1=O (stereo unspecified),-14%,-14.93%
Cc1nc(-c2cnn(C)c2)nc2c1CN(C(=O)c1cccnc1)CC2,-5.821%,2.036% & -5.446%
O=C(CN1CCCC1)N1CCCC1c1nc(O)cc(-c2ccccn2)n1 (stereo unspecified),-20.48%,-30.66%
CC1(C(N)=O)CN(S(=O)(=O)c2cccc(F)c2)CCO1 (stereo unspecified),-15.32% & -11.16%,-30.29%
Cc1ccc(C(CCNCCCN(C)C)C2CCOC(C)(C)C2)cc1.O=C(O)C(=O)O (stereo unspecified),-35.06%,21.92% & 10.23%
Cc1csc(N2CCCN(C(=O)c3cnns3)CC2)n1,-35.97%,-21.14%
CCn1cc(NC(=O)NCC2(N3CCOCC3)CCSC2)cn1 (stereo unspecified),-11.39%,-1.658%
CN(C)CCN1CCCC12CCN(C(=O)c1cccn1C)CC2.O=C(O)C(F)(F)F.O=C(O)C(F)(F)F,-13.06%,16.78%
CC1COc2ccccc2N1C(=O)c1ccc(=O)n(C)c1 (stereo unspecified),-0.1206%,4.531%
NC(=O)C1CCN(C(=O)Cn2ccc3cc(Br)ccc32)CC1,-20.77%,-20.71%
CCN1CCCC(c2c(-c3ccccc3)ncn2CCc2c[nH]cn2)C1 (stereo unspecified),18.05%,11.51%
OCCOc1nc(-c2ccccc2Cl)no1,4.419%,-1.018% & 6.364%
CN1CCNC(=O)C12CCN(Cc1ccco1)CC2.O=C(O)C(F)(F)F.O=C(O)C(F)(F)F,-26.13%,-15.19%
O=C(c1ccc(O)cn1)N1CCOC(Cc2cccc(C(F)(F)F)c2)C1 (stereo unspecified),-5.879%,1.428% & -22.86%
CCC(C)c1ccc(NC(=O)C2CCN(C(=O)N(C)C)CC2)cc1 (stereo unspecified),11.64%,23.88%
CCc1nn(C)c(Cl)c1CN1C[C@H](NC(=O)CCO)[C@@H](C(C)C)C1,1.2%,-4.81%
O=C(O)C(F)(F)F.[H][C@@]12CN(Cc3ccco3)CCC[C@]1(C(=O)OCC)CN(S(C)(=O)=O)C2,-6.38%,19.36%
O=C(O)C(F)(F)F.O=C(O)C(F)(F)F.O=C(O)c1c(-c2cncnc2)ncc2c1CCN(Cc1ccco1)C2,-42.14%,-80.94%
COc1ccc(CCNC(=O)CC(NC(N)=O)c2ccccc2)cc1 (stereo unspecified),-41.03%,-29.17%
Cc1ccc(C)c(NCc2nc3n(n2)CCCCC3)c1,-24.11%,-21.49%
CC1N(CC2CC2)C(=O)COC12CCN(C(=O)c1cccs1)CC2 (stereo unspecified),-23.42%,-5.068% & -50.34%
O=C(CN1CCCNC1=O)N(Cc1ccccc1)CC(F)F,-1.701%,-0.3487%
CCOc1cccc(C(=O)NCCC(=O)Nc2ccncc2)c1,-6.081%,-5.317% & -2.146%
CC1=Nc2c(c(=O)[nH]n2C(C)C)C(c2ccc3c(c2)OCCO3)S1 (stereo unspecified),-19.63%,6.264%
CNC(=O)NC(C)c1nc(-c2ccc(Br)cc2)no1 (stereo unspecified),-14.1%,-10.18%
CN(C)C(=O)CN1CCCC1c1cccc(Cc2ccccc2F)n1 (stereo unspecified),20.75%,45.54%
CC(=O)N1CCCN(C(=O)CCc2c(C)noc2C)CC1,-8.388%,14.41%
COC1CCN(S(=O)(=O)N2CCCC(c3cccc(C(=O)O)c3)C2)CC1 (stereo unspecified),-8.212%,2.289% & 26.57%
Nc1nc2c(c(NC(=O)Nc3ccccc3)n1)CCCC2,-31.44%,-46.51% & -1.223%
Cn1ccnc1CN1C[C@@H](CN2CCC(CO)CC2)[C@@H](CO)C1,15%,3.126%
Cc1cc(C(=O)N[C@H]2CC[C@@]3(CCC(=O)N3C)CC2)no1,-2.413%,-2.777%
COCC1CC2(CCN(Cc3nc(C)cs3)CC2)CO1 (stereo unspecified),-11.19%,7.35%
O=C(Cn1cc(Cl)cn1)N1CCCC(c2ccn[nH]2)C1 (stereo unspecified),7.903%,16.56%
O=C(O)c1cncc(Cc2ccc(F)cc2)c1,-6.988%,-13.11%
Cn1ccc2c(C(=O)N3CCC(C(N)=O)CC3)cccc21,-22.91%,-21.1%
COC(=O)N1CCC(Oc2ccc(C(=O)NCCN(C)C)cc2Cl)CC1,5.777%,2.735% & 13.92%
CN1CC2(CCN(Cc3cc(Cl)ccc3OCC(=O)O)CC2)OC1=O,13.25%,20.2%
COc1cccc(CNc2nc(N3CCOCC3)ns2)c1OC,-51.68%,-41.63%
O=C(NCc1nncn1C1CC1)C1(c2ccccc2)CCOCC1,5.588%,-18.32%
O=C(O)C(F)(F)F.O=C(O)C(F)(F)F.c1csc(CN2CCOCC3(CCN(C4CCOCC4)C3)C2)c1 (stereo unspecified),-13.82%,11.52%
O=C(O)C(F)(F)F.[H][C@@]12CCN(S(C)(=O)=O)[C@@]1([H])CCN2Cc1ccc2c(c1)OCO2,-5.38%,-5.853%
Cc1ccc(CNC(C)c2nnc3n2CCCC3)o1 (stereo unspecified),37.27%,-4.724%
Cc1ccc(C(=O)N[C@H]2CN(CCO)C[C@@H]2C2CC2)cc1Cl,-0.6708%,6.771%
CCS(=O)(=O)CCN1CCCC1c1noc(C)n1 (stereo unspecified),-5.119%,15.39%
O=C(O)C(F)(F)F.O=C(O)C(F)(F)F.[H][C@@]12CN(Cc3cnn(C)c3)C[C@]1([H])OCCN2c1ccc(C)nn1,-12.94%,-14.78%
CC(=O)c1cc(CC(=O)N2CCN(S(=O)(=O)c3ccccc3)CC2)cs1,3.528%,0.7034%
Cn1cc(CC2CC(=O)N(Cc3ccc(OC(F)F)cc3)C2=O)cn1 (stereo unspecified),14.54%,15.63%
COc1ccccc1C(N)CC(C)C (stereo unspecified),-6.457%,-10.92% & -0.11%

Repeated from the top, 6 entries:

Result for CC(O)CNC(=O)NCCCN1CCN(c2ncccn2)CC1 (stereo unspecified) was Mtb cholesterol medium: -17.29%; Mtb glucose medium: -4.892%.
Result for Cc1nc(C2CCN(S(=O)(=O)c3ccc(Cl)cc3)CC2)n[nH]1 was Mtb cholesterol medium: 20.94%; Mtb glucose medium: 22.48%.
Result for CC(C)c1nc(N2CC(N3CCCCC3C)C2)c2cnn(C)c2n1 (stereo unspecified) was Mtb cholesterol medium: -10.77%; Mtb glucose medium: -36.76%.
Result for CCC(NC(=O)CCNC(=O)c1ccccc1F)c1cc(C)ccn1 (stereo unspecified) was Mtb cholesterol medium: 5.017%; Mtb glucose medium: -16.52%.
Result for Cn1c(NCC(O)c2ccc(F)cc2)c(C#N)c(=O)n(C)c1=O (stereo unspecified) was Mtb cholesterol medium: -14%; Mtb glucose medium: -14.93%.
Result for Cc1nc(-c2cnn(C)c2)nc2c1CN(C(=O)c1cccnc1)CC2 was Mtb cholesterol medium: -5.821%; Mtb glucose medium: 2.036% & -5.446%.

From ChEMBL document CHEMBL3988442, “University of Dundee, Small-Polar-MMV Screening Library” (2021).